PubChem BioAssay AID1671195 – Yale University – 2021

- Test: 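Regulators of LDL receptor activity judged by labelled LDL uptake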 (primary screen)
- Cell system: human Huh7 hepatoma cells
- Reagent: siRNA pool against human genes, 18 nM
- Timing: about 2 to 2.5 days of knockdown, then 8 h LDL uptake
- Treatment: DiI-labelled LDL at 30 µg/ml for 8 h, in lipoprotein-deficient serum medium
- Detection: 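Fluorescent LDL signal imaged in cells, scaled to the plate median, robust z-score for each replicate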
- Reading the numbers: robust z-score: higher = more LDL uptake after knockdown
- Hit rule: 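a gene counts as active if at least two replicate z-scores exceed ±2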
The deposit covers about 22,000 reagents; below is a random part of them. In the full data, about 1,510 (6.9%) are marked active. 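Active includes knockdowns raising or lowering LDL uptake; positive z-scores mean more uptake, negative mean less.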 Entries without a mark were called inactive.

| gene symbol | robust z-score, replicate 1 | robust z-score, replicate 2 | robust z-score, replicate 3 |
| --- | --- | --- | --- |
| HS3ST2 (heparan sulfate-glucosamine 3-sulfotransferase 2) | 0.483 (active) | -2.59 | -2.01 |
| PSIP1 (PC4 and SRSF1 interacting protein 1) | -0.032 | -0.116 | 0.244 |
| ZDHHC23 (zDHHC palmitoyltransferase 23) | -0.938 | -0.566 | -0.818 |
| NFAM1 (NFAT activating protein with ITAM motif 1) | 0.227 | -0.184 | 0.217 |
| CCDC71L (coiled-coil domain containing 71 like) | -0.344 | 0.666 | -0.266 |
| FZD9 (frizzled class receptor 9) | 0.0671 | 0.31 | 0.961 |
| PNLIPRP3 (pancreatic lipase related protein 3) | -1.24 | -1.71 | -1.26 |
| SLC38A4 | 0.667 | -0.425 | -0.00404 |
| METTL15P1 (methyltransferase like 15 pseudogene 1) | 0.426 | 0.202 | 0.549 |
| FAM41C (family with sequence similarity 41 member C) | -1.29 | -1.23 | -1.11 |
| CEL (carboxyl ester lipase) | -0.499 | -0.141 | 0.267 |

The list goes on, starting with the last 4 of the part before.
| gene symbol | robust z-score, replicate 1 | robust z-score, replicate 2 | robust z-score, replicate 3 |
| --- | --- | --- | --- |
| SLC38A4 | 0.667 | -0.425 | -0.00404 |
| METTL15P1 (methyltransferase like 15 pseudogene 1) | 0.426 | 0.202 | 0.549 |
| FAM41C (family with sequence similarity 41 member C) | -1.29 | -1.23 | -1.11 |
| CEL (carboxyl ester lipase) | -0.499 | -0.141 | 0.267 |
| NODAL (nodal growth differentiation factor) | -1.41 | -1.72 | -0.725 |
| WFDC12 (WAP four-disulfide core domain 12) | -2.09 (active) | -2.17 | -2.3 |
| LOC340518 (retired record) | 0.584 | 1.13 | 0.665 |
| FZD10 (frizzled class receptor 10) | -1.19 | -1.91 | -0.664 |
| CIB1 (calcium and integrin binding 1) | -0.869 | -0.0113 | -1.43 |
| TAL1 | -0.914 | 1.07 | -0.37 |
| LOC440357 (retired record) | -0.983 | -1.04 | -1.36 |
| LOC401860 (retired record) | 0.628 (active) | 1.94 | 2.42 |
| LOC441333 (retired record) | -1.1 | -1.57 | -1.17 |
| LSM11 (LSM11, U7 small nuclear RNA associated) | 3.76 (active) | 3.71 | 3.5 |
| MALSU1 (mitochondrial assembly of ribosomal large subunit 1) | -0.194 | 0.915 | 0.179 |
| NAPRT (nicotinate phosphoribosyltransferase) | 0.236 | 0.146 | 0.145 |
| FAM111A (FAM111 trypsin like peptidase A) | 0.104 | -0.202 | -0.244 |
| LIN28A (lin-28 RNA binding posttranscriptional regulator A) | -0.762 | -0.204 | -0.015 |
| RPL18 (ribosomal protein L18) | -0.995 | -1.64 | -0.849 |
| OR10H5 (olfactory receptor family 10 subfamily H member 5) | -0.73 | -0.712 | -0.382 |
| SPTBN4 (spectrin beta, non-erythrocytic 4) | 0.175 | -0.285 | 0.0129 |
